In the supplement of paper PMC4683952:
Some of the results follow. Rule as the data show it: active = 2 or more and inactive = the rest. Single values are uncertain here, since repeats match poorly.

What follows are compounds tested on Lgr5 (MarsCy1-Lgr5-EGFP, U2OS) (assay: cell-surface Lgr5 expression (SCi1 fluorescence, background-subtracted) relative to WT DMSO (fold of DMSO control); higher = more Lgr5 at the plasma membrane). Conditions: U2OS MarsCy1-Lgr5-EGFP stable; treatment time: overnight; library: ActiProbe-5K (TimTec); 25 µM.

cell-surface Lgr5 expression, active:
CCOC(=O)c1sc(N2N=C(C)/C(=C/c3ccc(C)s3)C2=O)nc1C 2.09
C=CCN1C(=O)/C(=C2\SC(N3CC(C)OC(C)C3)=NC2=O)c2cc(Br)ccc21 (configuration not stated) 2.59

cell-surface Lgr5 expression, inactive:
OC1(C(F)(F)F)CC(/C=C\c2ccccc2)=NO1 (configuration not stated) 1.36
O=Cc1csc2ccc(Cl)nc12 1.21
N#Cc1ccc2c(c1)COC2(c1ccc(F)cc1)c1ccc(F)cc1 1.12
Cc1nn(Cc2c(C)nn(C)c2C)c(C)c1N 1.31
O=C(O)CCCCCNC(=O)c1cc(=O)[nH]c(=O)[nH]1 1.13
COc1ccc(SSc2ccc(OC)cc2[N+](=O)[O-])c([N+](=O)[O-])c1 1
Cc1ccc2c(C)cc(Cl)nc2c1C 1.34
COc1ccc(OCC2(N)CC2)cc1.Cl 1.05
Sc1nc2cc(Cc3ccc4[nH]c(S)nc4c3)ccc2[nH]1 1.53
COCCOC(=N)/C(C#N)=C/Oc1ccc(F)cc1 0.949
CC(C)(C)OC(=O)N[C@@H](Cc1c[nH]cn1)C(=O)O 1.2
COc1nc(N2CCCC2)nc(-n2nnc(C(C)=O)c2C)n1 1.15
CC(=O)OCC1OC(n2cnc3c(=O)[nH]c(N)nc32)C(OC(C)=O)C1OC(C)=O (configuration not stated) 1.14
Brc1ccc2sc3ccccc3c2c1 1.19
Fc1ccc(NCn2nnc3ccccc32)c(F)c1F 1.17
O=C1CCCCC1CCCCCCCCCCCO (configuration not stated) 1.22
COC(=O)c1c(NC(=O)C2CC2)sc2c1CCCC2 1.04
CC(C)(C)N(CCC#N)C(=O)N1CCNC1=O 1.5
COCc1c(C(=O)OC)nnn1-c1nonc1N 1.24
CCCCCCc1nn(-c2ccccc2)[n+](-c2ccccc2)n1.[Cl-] 1.18
CN1C(=O)/C(=C2\SC(=S)N(CCS(=O)(=O)O)C2=O)c2ccccc21 1.41
CCOC(=O)C1=C(C2CC=CCC2)NC(=S)NC1C (configuration not stated) 1.14
C1CN(c2nc(-c3nn[nH]n3)nc(N3CCOCC3)n2)CCO1 1.19
CC(=O)CC12CC3CC(CC(Br)(C3)C1)C2 1.24
CC(C)c1ccc2c(c1)CCC1C(C)(C#N)CCCC21C (configuration not stated) 1.16
CC(C)(C)c1ccc(-c2nn(CN3CCC(c4ccccc4)C3)c(=S)n2-c2ccccc2)cc1 (configuration not stated) 1.1
COc1cc(NS(C)(=O)=O)c(OC)cc1Cl 1.02
Cc1nccn1CCC1CCNCC1 0.944
C/C(=N/NC(=O)c1nn(C)c(C)c1Br)c1ccnn1C 1.07
NNC(=O)c1cc(C23CC4CC(CC(C4)C2)C3)n[nH]1 0.863
CC1(C)Cc2c(c(N3CCOCC3)nc3sc4c(NN)nnnc4c23)CO1 1.3
N#Cc1cc2c(=O)n3ccccc3nc2n(Cc2ccco2)c1=N 0.86
Cn1ccnc1/C=N\Nc1ccc(F)cc1 1.03
NNC(=O)C1CCCCC1 1.1
N#Cc1cc2c(nc1N)sc1c(O)cc(O)nc12 1.25
c1ccc2[nH]c(CCCc3nc4ccccc4[nH]3)nc2c1 1.35
O=S(=O)([O-])CCC[N+]1(CC#Cc2ccccc2)CCCCC1 1.09
CC12CC3CC(C)(C1)CC(CC(=O)O)(C3)C2 1.4
Nc1n[nH]c(N)c1/N=N\c1ccccc1 1.11
O=c1[nH]/c(=C/c2ccco2)c(=O)[nH]/c1=C\c1ccco1 0.818
C=CCC(NCc1cccs1)c1ccco1 (configuration not stated) 1.3
N#Cc1c(N)sc2c1CCCC2 1.27
c1coc(C2NCCc3sccc32)c1 (configuration not stated) 1.23
S=C(CC(=S)N1CCOCC1)N1CCOCC1 1.48
O=C(O)CCN1C(=O)/C(=C2/C(=O)Nc3ccc(Br)cc32)SC1=S 1.66
N(=C1/C=CC(C=C1)=O)/c1ccc(cc1)N(C)C 1.15
NS(=O)(=O)c1ccc(NS(=O)(=O)c2ccc(NC(=S)Nc3ccccc3)cc2)cc1 1.23
COc1ccc(OC)c(NS(=O)(=O)c2cc(Cl)ccc2Cl)c1 1.16
CC1(C)OC(=O)N(CCc2cccs2)C1(C)O (configuration not stated) 1.08
O=S(=O)(N[C@@H]1C[C@H]2CC[C@@H]1C2)c1ccc(Cl)cc1 1.15
O=S(=O)([O-])c1cc(O)c(/N=N/c2c(O)ccc3ccccc23)c2ccccc12.[Na+] 1.29
Cc1c2c(nc3ccccc13)OC(C)C2 (configuration not stated) 0.927
O=C(CSc1nnc[nH]1)N1CCOCC1 1.34
Cc1nnnn1-c1cc2c(s1)CCCC2 1.36
S=C(c1ccc(C(=S)N2CCOCC2)cc1)N1CCOCC1 1.31
C(CC(N\N=C1/CCCC1)=O)(NC(C)C)=O 1.18
Cc1c(Cl)c(O)nc2nnc(C(F)(F)F)n12 0.999
CC(C)C(=O)N(C)C1CCCCC1 1.06
NCC1CCCN(CCO)C1 (configuration not stated) 1.09
Fc1ccc(C#Cc2ccc(C#Cc3ccc(F)cc3)cc2)cc1 1.43
O=C(Nc1sc2c(c1C(=O)N1CCOCC1)CCC2)c1ccco1 0.966
Cc1cc(C)c(S(N)(=O)=O)c(C)c1-n1cnnn1 1.15
Cn1c(=S)n(CCSc2nc3ccccc3n2C2CCCCC2)c2ccccc21 1.29
COc1ccc(/C=N\NC(=S)S)cc1OC 1.05
Cc1sc(C(C2C(=O)CC(C)(C)CC2=O)C2C(=O)CC(C)(C)CC2=O)cc1Br 1.54
Nc1nc(N)c2nc[nH]c2n1 1.67
O=c1oc(-c2ccccn2)nc2ccccc12 1.11
CCOC(=O)c1cnc(SC)nc1C 1.11
Clc1ccc(C2=CC(c3ccccc3)n3ncnc3N2)cc1 (configuration not stated) 0.971
N#CCSc1nc2c(c(C3CC=CCC3)c1C#N)CCC2 (configuration not stated) 1.31
c1ccc(-c2nc(-c3ccccn3)nc(-c3ccccn3)n2)nc1 1.01
Clc1ncnc2nc3n(c12)CCC3 1.11
CC12CN3CCN(CC(C3)/C1=N/N=C\c1ccc3c(c1)OCO3)C2 1.41
CC(C)CCC1(CCC(=O)O)CCOC1=O (configuration not stated) 1.25
C(=N/N1CCN(C2c3ccccc3-c3ccccc32)CC1)/c1ccncc1 0.908
Nc1ncnc2[nH]c(Br)nc12 1.16
N#Cc1c(NC(=O)/C=C\C(=O)O)sc2c1CCC2 1.51
c1ccc(CN2COc3ccc4ccccc4c3C2)cc1 1.4
Cc1nnc(SCC(=O)OC2CC(C)CCC2C(C)C)[nH]c1=O (configuration not stated) 1.13
CCOC(=O)c1cc(CSCC(O)C(O)CSCc2cc(C(=O)OCC)oc2C)c(C)o1 (configuration not stated) 0.927
CCc1nc2c(o1)NC(N)=C(C#N)C21CCN(C)CC1 1.14
O=C1OCc2cc(-n3cnnn3)ccc21 0.861
O=C1Nc2ccc(Br)cc2/C1=N\N=C/c1c[nH]c2ccccc12 0.668
O=C(O)/C=C\C(=O)NC1CCCCC1 1.52
CC1(C)OCC(C2OC(O)C3OC(C)(C)OC32)O1 (configuration not stated) 1.16
Clc1ncnc2sc3c(c12)CCCCC3 1.15
O=C(O)CCC(=O)OC1CC2CCC1C2 (configuration not stated) 1.06
Cn1ncc(Cl)c1C(=O)O 1.18
COC(=O)CCCC[C@H]1SC[C@@H](NC(N)=O)[C@H]1NC(N)=O 1.04
C#CCSc1nncn1C(=O)/C=C\c1ccco1 1.3
N#C/C(=C\c1ccccc1/C=C(/C#N)c1ccc2c(c1)OCO2)c1ccc2c(c1)OCO2 1.12
O=C(O)C1CCCN1C(=O)/C=C\c1ccco1 (configuration not stated) 1.25
Cc1nnc([nH]c1=O)N\N=C(\C(=O)O)C(=O)O 1.57
NNc1c(F)c(F)cc(F)c1F 1.23
[O-][n+]1onc2c3c4c([nH]c3ccc21)CCCC4 0.985
O=S(=O)(c1ccc2c(c1)OCCO2)N1CCCCCC1 1.1
c1csc(-c2nnc(C3CCCCC3)o2)c1 0.976
O=C1CN2C(=C1c1nc3ccccc3c(=O)[nH]1)NC(=O)c1ccccc12 1.1
FC(F)(F)c1ccc(/C=N/n2cnnc2)cc1 1.01
c1cc2c3c(cccc3c1)NC1(CCCCCC1)N2 1.09
O=[N+]([O-])c1cc(Cl)ccc1-n1ccnc1 1.08
COc1cc(C2CC(C)(OC)Oc3cc4c(cc32)OCO4)cc(OC)c1OC (configuration not stated) 1
O=c1[nH]cnc2c1nc(N1CCNCC1)n2C1OC(CO)C(O)C1O (configuration not stated) 0.968
N#Cc1ccc(-c2ccncc2)nc1SCc1ccncc1 1.13
Clc1cccc(Cl)c1-c1noc(CSc2nc3ccccc3s2)n1 1.07

Three entries picked at random from those above:
cell-surface Lgr5 expression, inactive:
Nc1ncnc2[nH]c(Br)nc12 1.16
CN1C(=O)/C(=C2\SC(=S)N(CCS(=O)(=O)O)C2=O)c2ccccc21 1.41
CCOC(=O)c1cnc(SC)nc1C 1.11

An excerpt from above in order of number of heavy atoms, low to high.
cell-surface Lgr5 expression, inactive:
Nc1nc(N)c2nc[nH]c2n1 1.67
COCc1c(C(=O)OC)nnn1-c1nonc1N 1.24
COc1nc(N2CCCC2)nc(-n2nnc(C(C)=O)c2C)n1 1.15
